# Data taken from PMC9570217.
# Sequences of proteins named here, by UniProt entry; tags and fusion partners are left off.
# UniProt P08047, whole entry: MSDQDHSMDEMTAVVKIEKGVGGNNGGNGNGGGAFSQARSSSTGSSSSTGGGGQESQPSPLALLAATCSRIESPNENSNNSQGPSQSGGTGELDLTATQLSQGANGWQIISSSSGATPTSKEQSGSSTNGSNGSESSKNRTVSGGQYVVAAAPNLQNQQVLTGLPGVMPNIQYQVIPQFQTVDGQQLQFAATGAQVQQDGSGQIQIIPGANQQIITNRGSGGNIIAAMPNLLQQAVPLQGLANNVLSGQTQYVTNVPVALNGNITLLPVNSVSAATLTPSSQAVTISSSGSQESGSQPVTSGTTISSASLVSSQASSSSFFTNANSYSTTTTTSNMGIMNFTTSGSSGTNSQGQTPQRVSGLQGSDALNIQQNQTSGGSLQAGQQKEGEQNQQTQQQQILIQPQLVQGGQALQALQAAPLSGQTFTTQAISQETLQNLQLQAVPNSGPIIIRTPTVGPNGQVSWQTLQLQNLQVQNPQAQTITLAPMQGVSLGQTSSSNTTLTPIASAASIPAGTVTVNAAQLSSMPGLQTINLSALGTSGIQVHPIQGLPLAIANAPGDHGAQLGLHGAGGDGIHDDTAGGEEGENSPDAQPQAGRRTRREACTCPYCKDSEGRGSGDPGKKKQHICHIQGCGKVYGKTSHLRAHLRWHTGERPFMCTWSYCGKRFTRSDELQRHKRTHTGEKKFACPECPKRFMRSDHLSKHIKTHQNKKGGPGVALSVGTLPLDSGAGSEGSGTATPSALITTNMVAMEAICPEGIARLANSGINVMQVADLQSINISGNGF
# UniProt P23511, whole entry: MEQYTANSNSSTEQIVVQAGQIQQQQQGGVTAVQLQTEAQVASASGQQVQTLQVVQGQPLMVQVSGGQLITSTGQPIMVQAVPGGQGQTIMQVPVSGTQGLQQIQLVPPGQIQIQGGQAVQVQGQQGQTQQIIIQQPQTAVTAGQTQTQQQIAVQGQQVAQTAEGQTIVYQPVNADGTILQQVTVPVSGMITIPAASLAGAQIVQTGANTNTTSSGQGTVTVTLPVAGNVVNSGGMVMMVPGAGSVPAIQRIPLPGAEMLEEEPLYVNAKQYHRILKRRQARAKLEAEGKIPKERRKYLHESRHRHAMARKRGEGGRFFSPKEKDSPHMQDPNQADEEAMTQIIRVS
# For at least one entry, the source does not settle the construct or the ends of the probe. Where cells or extracts were used, other partners may take part. For some of these results: The comparison behind a weaker result is the experiment's own reference, which may not be listed here.
# Legend:
# [1] = molecular target: SP1 (Homo sapiens (HeLa nuclear extract, HeLaScribe)) (UniProt P08047); assay: EMSA with antibody (complex hampered by anti-SP1) and self-competition; conditions: HeLa nuclear extract; 10 mM Tris-HCl pH 7.0, 50 mM KCl; likely ug) poly dI-dC, 5% glycerol, 1 mM EDTA, 1 mM DTT; 6 ug HeLa nuclear extract, 10 fmol probe, 4 °C; protein in an …
# [2] = molecular target: SP1 (Homo sapiens (HeLa nuclear extract, HeLaScribe)) (UniProt P08047); assay: competition with a labelled probe; conditions: unlabeled competitor, capacity to compete impaired; 10 mM Tris-HCl pH 7.0, 50 mM KCl; likely ug) poly dI-dC, 5% glycerol, 1 mM EDTA, 1 mM DTT; 6 ug HeLa nuclear extract, 10 fmol probe, 4 °C; protein in an extract; label: none (unlabeled competitor)
# [3] = molecular target: NFY (NFYA subunit identified) (Homo sapiens (HeLa nuclear extract, HeLaScribe)) (UniProt P23511); assay: competition with a labelled probe; conditions: unlabeled competitor, capacity to compete impaired; 10 mM Tris-HCl pH 7.0, 50 mM KCl; likely ug) poly dI-dC, 5% glycerol, 1 mM EDTA, 1 mM DTT; 6 ug HeLa nuclear extract, 10 fmol probe, 4 °C; protein in an extract; label: none (unlabeled competitor)
# [4] = molecular target: NFY (NFYA subunit identified) (Homo sapiens (HeLa nuclear extract, HeLaScribe)) (UniProt P23511); assay: EMSA supershift (anti-NFYA) and self-competition; conditions: HeLa nuclear extract; 10 mM Tris-HCl pH 7.0, 50 mM KCl; likely ug) poly dI-dC, 5% glycerol, 1 mM EDTA, 1 mM DTT; 6 ug HeLa nuclear extract, 10 fmol probe, 4 °C; protein in an …
sequence,measurement,setting,value
CATCAGGCTCCGCCCCACGGTCTGCGGA (double strand) [PNPT1-SP1/NRSE],binding result,[1],binds
CATCAGGCTCCGAACCACGGTCTGCGGA (double strand) [PNPT1-SP1-mut],binding result,[2],binds more weakly
GGAGTGAGCCAAACAGGGCACAGCCTGC (double strand) [PNPT1-CAATbox-mut],binding result,[3],binds more weakly
GGAGTGAGCCAATCAGGGCACAGCCTGC (double strand) [PNPT1-CAATbox],binding result,[4],binds
